Measurements reported in patent US20220381657A1, “METHOD FOR PREPARING BIOLOGICAL MATERIAL HAVING EXCELLENT LIGHT-TRANSMITTING PROPERTY” (RIKEN, priority 2016, published 2022).
At least one structure is not confirmed: it was looked up by name or label, or the drawing left a doubt.

Settings: Table 4

`C[N+](C)=S(=O)(c1ccccc1)C(F)(F)F` (stereo not shown) [#1598, [(Oxido)phenyl(trifluoromethyl)-λ^4-sulfanylidene]dimethylammonium tetrafluoroborate] gave a pH of 4.52.
